Assay results: patent US20130023534A1, “PYRAZOLYL-PYRIMIDINES AS KINASE INHIBITORS” (priority 2010, published 2013)
Structures can show the parent of a compound that is named as a salt. Some results were stated once for a whole list of compounds, not compound by compound.

Protein sequences, listed by entry. Tags and fused reporters are not part of them.
UniProt O43353, whole entry: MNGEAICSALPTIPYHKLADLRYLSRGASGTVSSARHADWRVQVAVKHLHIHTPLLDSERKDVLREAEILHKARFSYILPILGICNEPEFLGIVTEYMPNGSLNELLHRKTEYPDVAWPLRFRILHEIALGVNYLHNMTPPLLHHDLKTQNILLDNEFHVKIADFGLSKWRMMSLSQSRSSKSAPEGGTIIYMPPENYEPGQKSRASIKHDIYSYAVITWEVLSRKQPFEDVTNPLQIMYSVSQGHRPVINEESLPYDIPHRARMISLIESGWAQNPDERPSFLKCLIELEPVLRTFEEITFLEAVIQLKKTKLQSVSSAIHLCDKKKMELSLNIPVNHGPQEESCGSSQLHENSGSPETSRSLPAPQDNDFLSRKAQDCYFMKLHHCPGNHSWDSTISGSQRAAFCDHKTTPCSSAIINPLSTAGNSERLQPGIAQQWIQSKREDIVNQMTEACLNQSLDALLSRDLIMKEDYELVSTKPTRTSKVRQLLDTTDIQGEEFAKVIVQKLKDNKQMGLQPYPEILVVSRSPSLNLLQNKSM

target: T1, RIPK2 (Homo sapiens, UniProt O43353); test: Fluorescent polarization based binding assay at the ATP binding pocket of RIPK2; conditions: full length FLAG His tagged RIPK2; competition with fluorescently labeled ATP competitive ligand (5 nM); mean of a minimum of 2 experiments
T1 construct: Full length FLAG His tagged RIPK2 was purified from a Baculovirus expression system; FLAG (N); 6His (N); made in house; host or cells: Spodoptera frugiperda (Sf9) insect cells, baculovirus
From the text: A fluorescent polarization based binding assay was developed to quantitate interaction of novel test compounds at the ATP binding pocket of RIPK2, by competition with a fluorescently labeled ATP competitive ligand. Full length FLAG His tagged RIPK2 was purified from a Baculovirus expression system and was used at a final assay concentration of twice the KDapparent. A fluorescent labeled ligand (5-({[2-({[3-({4-[(5-hydroxy-2-methylphenyl)amino]-2-pyrimidinyl}amino)phenyl]carbonyl}amino)ethyl]amino}carbonyl)-2-(6-hydroxy-3-oxo-3H-xanthen-9-yl)benzoic acid, prepared as described below) was used at a final assay concentration of 5 nM. Both the enzyme and ligand were prepared in solutions in 50 mM HEPES pH7.5, 150 mM NaCl, 10 mM MgCl2, 1 mM DTT, and 1 mM CHAPS. Test compounds were prepared in 100% DMSO and 100 nL was dispensed to individual wells of a multiwell plate. Next, 5 ul RIPK2 was added to the test compounds at twice the final assay concentration, and incubated at room temperature for 10 minutes. Following the incubation, 5 ul of the fluorescent labeled ligand solution, was added to each reaction, at twice the final assay concentration, and incubated at room temperature for at least 10 minutes. Finally, samples were read on an instrument capable of measuring fluorescent polarization. Test compound inhibition was expressed as percent (%) inhibition of internal assay controls.
For concentration response experiments, normalized data were fit and pIC50s determined using conventional techniques. For example, the following four parameter logistic equation may be used: y=A+((B−C))/(1+(10^x)/(10^C)^D), where: y is the % activity (% inhibition) at a specified compound concentration; A is the minimum % activity; B is the maximum % activity; C=log10(IC50); D=Hill slope; x=log10 (compound concentration [M]); and pIC50=(−C).
The pIC50s are averaged to determine a mean value, for a minimum of 2 experiments.
Full-length human RIPK2 (receptor-interacting serine-threonine kinase 2) cDNA was purchased from Invitrogen (Carlsbad, Calif., USA, Clone ID:IOH6368, RIPK2-pENTR 221). Gateway® LR cloning was used to site-specifically recombine RIPK2 downstream to an N-terminal FLAG-6His contained within the destination vector pDEST8-FLAG-His6 according to the protocol described by Invitrogen. Transfection into Spodoptera frugiperda (Sf9) insect cells was performed using Cellfectin® (Invitrogen), according to the manufacturer's protocol.

SMILES | mean pIC50
Cc1cc(Nc2nccc(N(C)c3onc(C)c3C)n2)cc(S(=O)(=O)C2CCOCC2)c1 [Example 176, N4-(3,4-DIMETHYL-5-ISOXAZOLYL)-N4-METHYL-N2-[3-METHYL-5-(TETRAHYDRO-2H-PYRAN-4-YLSULFONYL)PHENYL]-2,4-PYRIMIDINE-DIAMINE] | greater than or equal to 6.0
Cc1n[nH]c(Nc2ccnc(Nc3cc(N4CCCC4)cc(S(C)(=O)=O)c3)n2)c1C [Example 10, N4-(4,5-dimethyl-1H-pyrazol-3-yl)-N2-[3-(methylsulfonyl)-5-(1-pyrrolidinyl)phenyl]-2,4-pyrimidinediamine] | greater than or equal to 6.0
Cc1noc(Nc2ccnc(Nc3cccc(S(C)(=O)=O)c3)n2)c1C [Example 7, N4-(3,4-dimethyl-5-isoxazolyl)-N2-[3-(methylsulfonyl)phenyl]-2,4-pyrimidinediamine] | greater than or equal to 6.0
COc1cc(Nc2nccc(Nc3n[nH]c(C)c3C)n2)cc(S(C)(=O)=O)c1 [Example 113, N^4-(4,5-dimethyl-1H-pyrazol-3-yl)-N^2-[3-(methyloxy)-5-(methylsulfonyl)phenyl]-2,4-pyrimidinediamine hydrochloride] | greater than or equal to 6.0
Cc1cc(Nc2nccc(Nc3onc(C)c3C)n2)cc(S(=O)(=O)C2CCOCC2)c1 [Example 175, N4-(3,4-DIMETHYL-5-ISOXAZOLYL)-N2-[3-METHYL-5-(TETRAHYDRO-2H-PYRAN-4-YLSULFONYL)PHENYL]-2,4-PYRIMIDINE-DIAMINE] | greater than or equal to 6.0
Cc1ccc(Nc2nccc(Nc3[nH]nc(C)c3C)n2)cc1S(=O)(=O)NCCO [Example 78, 5-({4-[(3,4-dimethyl-1H-pyrazol-5-yl)amino]-2-pyrimidinyl}amino)-N-(2-hydroxyethyl)-2-methylbenzenesulfonamide] | greater than or equal to 6.0
Cc1[nH]nc(N(C)c2ccnc(Nc3cccc(S(=O)(=O)C(C)C)c3)n2)c1C [Example 121, N4-(4,5-dimethyl-1H-pyrazol-3-yl)-N4-methyl-N2-{3-[(1-methylethyl)-sulfonyl]phenyl}-2,4-pyrimidinediamine] | greater than or equal to 6.0
Cc1[nH]nc(Nc2ccnc(Nc3cc(S(N)(=O)=O)cc4c3OCC4)n2)c1C [Example 115, 7-({4-[(4,5-dimethyl-1H-pyrazol-3-yl)amino]-2-pyrimidinyl}amino)-2,3-dihydro-1-benzofuran-5-sulfonamide] | greater than or equal to 6.0
COc1ccc(-n2nc(C)c(C)c2Nc2ccnc(Nc3ccc(OC)c(OC)c3)n2)cn1 [Example 106, N^2-[3,4-bis(methyloxy)phenyl]-N^4-{3,4-dimethyl-1-[6-(methyloxy)-3-pyridinyl]-1H-pyrazol-5-yl}-2,4-pyrimidinediamine trifluoroaceate] | greater than or equal to 6.0
COc1ccc(Nc2nccc(Nc3cc(C)nn3-c3ccccc3C)n2)cc1OC [Example 50, N^2-[3,4-bis(methyloxy)phenyl]-N^4-[3-methyl-1-(2-methylphenyl)-1H-pyrazol-5-yl]-2,4-pyrimidinediamine trifluoroacetate] | greater than or equal to 6.0
Cc1n[nH]c(Nc2ccnc(Nc3cccc(S(C)(=O)=O)c3)n2)c1C [Example 109, N^4-(3,4-dimethyl-1H-pyrazol-5-yl)-N^2-[3-(methylsulfonyl)phenyl]-2,4-pyrimidinediamine hydrochloride] | greater than or equal to 6.0
Cc1n[nH]c(Nc2ccnc(Nc3cccc(S(=O)(=O)C(F)(F)F)c3)n2)c1C [Example 111, N4-(3,4-dimethyl-1H-pyrazol-5-yl)-N2-{3-[(trifluoromethyl)sulfonyl]phenyl}-2,4-pyrimidinediamine] | greater than or equal to 6.0
Cc1ccc(-n2nc(C)cc2Nc2ccnc(Nc3ccc(N4CCN(C)CC4)c(Cl)c3)n2)cc1 [Example 23, N^2-[3-chloro-4-(4-methyl-1-piperazinyl)phenyl]-N^4-[3-methyl-1-(4-methylphenyl)-1H-pyrazol-5-yl]-2,4-pyrimidinediamine trifluoroacetate] | greater than or equal to 6.0
Cc1nn(-c2ccccn2)c(Nc2ccnc(Nc3cccc(C(C)(C)C#N)c3)n2)c1C [Example 73, 2-{3-[(4-{[3,4-dimethyl-1-(2-pyridinyl)-1H-pyrazol-5-yl]amino}-2-pyrimidinyl)amino]phenyl}-2-methylpropane-nitrile] | greater than or equal to 6.0
Cc1ccc(Nc2nccc(Nc3c(C)c(C)nn3C)n2)cc1S(=O)(=O)C(C)(C)CO.O=C(O)C(F)(F)F [Example 126, 2-methyl-2-{[2-methyl-5-({4-[(1,3,4-trimethyl-1H-pyrazol-5-yl)amino]-2-pyrimidinyl}amino)phenyl]sulfonyl}-1-propanol trifluoroacetate] | greater than or equal to 6.0
Cc1[nH]nc(Nc2ccnc(Nc3cccc(C(C)(C)C#N)c3)n2)c1C [Example 72, 2-[3-({4-[(4,5-dimethyl-1H-pyrazol-3-yl)amino]-2-pyrimidinyl}amino)phenyl]-2-methylpropane-nitrile] | greater than or equal to 6.0
Cc1nn(-c2ccccn2)c(Nc2ccnc(Nc3cccc(S(=O)(=O)N4CCCC4)c3)n2)c1C [Example 60, N^4-[3,4-dimethyl-1-(2-pyridinyl)-1H-pyrazol-5-yl]-N^2-[3-(1-pyrrolidinylsulfonyl)phenyl]-2,4-pyrimidinediamine trifluoroacetate] | greater than or equal to 6.0
Cc1n[nH]c(Nc2ccnc(Nc3cccc(S(=O)(=O)N4CCC(O)CC4)c3)n2)c1C [Example 94, 1-{[3-({4-[(3,4-dimethyl-1H-pyrazol-5-yl)amino]-2-pyrimidinyl}amino)phenyl]sulfonyl}-4-piperidinol hydrochloride] | greater than or equal to 6.0
COc1ccc(Nc2nccc(Nc3c(C)c(C)nn3-c3ccc(C)cn3)n2)cc1OC [Example 17, N^2-[3,4-bis(methyloxy)phenyl]-N^4-[3,4-dimethyl-1-(5-methyl-2-pyridinyl)-1H-pyrazol-5-yl]-2,4-pyrimidinediamine trifluoroacetate] | greater than or equal to 6.0
Cc1n[nH]c(Nc2ccnc(Nc3cccc(S(=O)(=O)N4CCOCC4)c3)n2)c1C [Example 93, N4-(3,4-dimethyl-1H-pyrazol-5-yl)-N2-[3-(4-morpholinylsulfonyl)phenyl]-2,4-pyrimidinediamine hydrochloride] | greater than or equal to 6.0
COc1cc(Nc2nccc(Nc3c(C)c(C)nn3CCO)n2)cc(OC)c1OC [Example 41, 2-{3,4-dimethyl-5-[(2-{[3,4,5-tris(methyloxy)phenyl]amino}-4-pyrimidinyl)amino]-1H-pyrazol-1-yl}ethanol] | greater than or equal to 6.0
Cc1ccc(Nc2nccc(Nc3[nH]nc(C)c3C)n2)cc1S(C)(=O)=O [Example 101, N^4-(3,4-dimethyl-1H-pyrazol-5-yl)-N^2-[4-methyl-3-(methylsulfonyl)phenyl]-2,4-pyrimidinediamine trifluoroacetate] | greater than or equal to 6.0
Cc1cc(Nc2nccc(Nc3[nH]nc(C)c3C)n2)cc(S(C)(=O)=O)c1 [Example 108, N^4-(3,4-dimethyl-1H-pyrazol-5-yl)-N^2-[3-methyl-5-(methylsulfonyl)phenyl]-2,4-pyrimidinediamine hydrochloride] | greater than or equal to 6.0
COc1ccc(Nc2nccc(Nc3cc(C)nn3-c3ccc(Cl)cc3)n2)cc1OC.O=C(O)C(F)(F)F [Example 53, N^2-[3,4-bis(methyloxy)phenyl]-N^4-[1-(4-chlorophenyl)-3-methyl-1H-pyrazol-5-yl]-2,4-pyrimidinediamine trifluoroacetate] | greater than or equal to 6.0
COc1cc(Nc2nccc(Nc3c(C)c(C)nn3C)n2)cc(OC)c1OC [Example 43, N^4-{1,3,4-trimethyl-1H-pyrazol-5-yl}-N^2-[3,4,5-tris(methyloxy)phenyl]-2,4-pyrimidinediamine] | greater than or equal to 6.0
COc1ccc(Nc2nccc(Nc3onc(C)c3C)n2)cc1OC [Example 154, N^2-[3,4-bis(methyloxy)phenyl]-N^4-(3,4-dimethyl-5-isoxazolyl)-2,4-pyrimidinediamine trifluoroacetate] | greater than or equal to 6.0
